# Values from PubChem BioAssay AID1053208 (Peter MacCallum Cancer Centre, 2014)
# Screen: 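Synthetic lethal interactions between gene loss and doxorubicin in osteosarcoma cells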 (primary screen)
# System: mouse osteosarcoma cells, early-passage culture from an engineered mouse model of fibroblastic bone tumour
# Knock-down reagent: siRNA pool against mouse genes, 40 nM
# Time to read-out: about 120 h (48 h before drug, then 72 h with drug)
# Conditions: doxorubicin 100 nM for 72 h, roughly 30-40% inhibitory dose
# Measured: 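Viability read as ATP luminescence after 72 h of 100 nM doxorubicin or none, duplicate wells averaged, scaled to non-targeting siRNA, then expressed as robust z-scores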
# Reading the numbers: viability z-score with doxorubicin: higher = more viable cells under doxorubicin; viability z-score without drug: higher = more viable cells with knock-down alone
# Hit rule: 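a pool counts as active when its viability z-score with doxorubicin is -2 or below and its z-score without drug lies between -2 and 2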
# The deposit covers about 17,000 reagents; below is a part drawn at random. 788 of them (4.7%) were called active. 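Calls rest on z-score classes alone; an extra cut-off of viability at most 70% of control was not applied to them.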 Reagents against one gene are numbered here. Not all columns of the deposit are shown.
target gene,reagent,combined z-score class,viability z-score with doxorubicin,viability z-score without drug,call
"Kcnip3 (Kv channel interacting protein 3, calsenilin)",1,no change with or without drug,-0.34,1.85,inactive
Ctsw (cathepsin W),1,no change with or without drug,1.57,-1.52,inactive
Ptprt (protein tyrosine phosphatase receptor type T),1,no change with or without drug,1.01,0.51,inactive
Or8c13 (olfactory receptor family 8 subfamily C member 13),1,no change with or without drug,-0.67,0.67,inactive
Cd320 (CD320 antigen),1,no change with or without drug,0.11,0.67,inactive
Pglyrp4 (peptidoglycan recognition protein 4),1,low cell count with doxorubicin only,-2.7,-1.18,active
"Ppp6c (protein phosphatase 6, catalytic subunit)",1,no change with or without drug,-0.45,1.52,inactive
Trip11 (thyroid hormone receptor interactor 11),1,no change with or without drug,0.67,-0.34,inactive
Lsm2,1,no change with or without drug,-0.9,-0.84,inactive
Trav3-3 (T cell receptor alpha variable 3-3),1,no change with or without drug,-1.01,-0.17,inactive
Prps2 (phosphoribosyl pyrophosphate synthetase 2),1,no change with or without drug,1.01,-1.52,inactive
Piwil4 (piwi-like RNA-mediated gene silencing 4),1,no change with or without drug,0.22,-0.17,inactive
Tpsg1 (tryptase gamma 1),1,no change with or without drug,1.12,0.51,inactive
Sds (serine dehydratase),1,high cell count with and without drug,3.93,2.87,inactive
Slc22a29,1,no change with or without drug,0.22,0.17,inactive
Prtg (protogenin),1,low cell count with and without drug,-3.15,-4.55,inactive
"Spint2 (serine protease inhibitor, Kunitz type 2)",1,no change with or without drug,0.11,0,inactive
Mrps7 (mitchondrial ribosomal protein S7),1,no change with or without drug,0.22,-1.85,inactive
Rnaset2b (ribonuclease T2B),1,no change with or without drug,-1.8,-0.51,inactive
Or9g4b (olfactory receptor family 9 subfamily G member 4B),1,no change with or without drug,0.34,-0.51,inactive
Tmem216 (transmembrane protein 216),1,no change with or without drug,1.35,0.67,inactive
Rnf169 (ring finger protein 169),1,no change with or without drug,0.9,-0.34,inactive
Cbln4 (cerebellin 4 precursor protein),1,no change with or without drug,-1.57,-0.34,inactive
Tac4 (tachykinin 4),1,no change with or without drug,0.11,0.51,inactive
Raly (hnRNP-associated with lethal yellow),1,no change with or without drug,-0.22,1.01,inactive
Ott (ovary testis transcribed),1,no change with or without drug,-0.22,-0.34,inactive
"Crygb (crystallin, gamma B)",1,no change with or without drug,-0.45,1.18,inactive
Lin9 (lin-9 DREAM MuvB core complex component),1,no change with or without drug,1.12,0.34,inactive
a (nonagouti),1,low cell count with doxorubicin only,-2.02,-1.18,active
"Vmn2r26 (vomeronasal 2, receptor 26)",1,no change with or without drug,-1.12,1.01,inactive
Cox20 (cytochrome c oxidase assembly protein 20),1,no change with or without drug,-1.24,0.17,inactive
Cenph (centromere protein H),1,low cell count with doxorubicin only,-2.02,-0.84,active
2310022A10Rik (RIKEN cDNA 2310022A10 gene),1,no change with or without drug,0.22,0.84,inactive
"Vmn1r239-ps (vomeronasal 1 receptor 239, pseudogene)",1,no change with or without drug,-0.11,-0.67,inactive
Cldn12 (claudin 12),1,no change with or without drug,1.8,1.18,inactive
"Spats1 (spermatogenesis associated, serine-rich 1)",1,no change with or without drug,0.22,-0.34,inactive
Ghr (growth hormone receptor),1,high cell count with doxorubicin only,2.59,1.18,inactive
Mitf (melanogenesis associated transcription factor),1,no change with or without drug,-0.22,1.01,inactive
L3mbtl4 (L3MBTL4 histone methyl-lysine binding protein),1,no change with or without drug,1.01,0.51,inactive
L3mbtl4 (L3MBTL4 histone methyl-lysine binding protein),2,no change with or without drug,-0.11,-1.01,inactive
Syt7 (synaptotagmin VII),1,no change with or without drug,0.67,-0.67,inactive
"Grik5 (glutamate receptor, ionotropic, kainate 5 (gamma 2))",1,no change with or without drug,0,-0.84,inactive
Scyl1 (SCY1-like 1 (S. cerevisiae)),1,no change with or without drug,-0.34,-0.51,inactive
Prkra,1,no change with or without drug,-1.46,-0.17,inactive
Or8g28 (olfactory receptor family 8 subfamily G member 28),1,low cell count without drug only,-1.57,-2.87,inactive
Thbd (thrombomodulin),1,no change with or without drug,0.67,0.17,inactive
Or55b10 (olfactory receptor family 55 subfamily B member 10),1,no change with or without drug,1.01,1.35,inactive
Helb (helicase (DNA) B),1,no change with or without drug,0.11,1.85,inactive
Nmu (neuromedin U),1,no change with or without drug,1.01,-0.51,inactive
"Cep83os (centrosomal protein 83, opposite strand)",1,low cell count without drug only,-0.9,-2.19,inactive

Called active (from the list above):
target gene,reagent,combined z-score class,viability z-score with doxorubicin,viability z-score without drug,call
Pglyrp4 (peptidoglycan recognition protein 4),1,low cell count with doxorubicin only,-2.7,-1.18,active
a (nonagouti),1,low cell count with doxorubicin only,-2.02,-1.18,active
Cenph (centromere protein H),1,low cell count with doxorubicin only,-2.02,-0.84,active
